Here are results for two substances from PMC3877277.

No constants are given. Whether binding was seen depends on the method and setting. Binding seen in cells or lysates may run through a third protein. Some binding calls cover weakened binding; strength is not graded here.

Test [1] has as its target GST-D2i3 (third intracellular loop of DRD2, amino acid residues 212-373) (human) (UniProt P14416). In words: pull-down; 10 ug purified GST-D2i3 incubated with rat brain lysate 1.5 h at 4 C; GSH-Sepharose 4B beads 1 h; rinsed 4 times with lysis buffer; Western blot with anti-Cdk5 and anti-p35; only the target purified. For orientation: A western blot detects proteins with antibodies after separation by electrophoresis.

Test [2] concerns the target DRD2-GFP (human dopamine D2 receptor long isoform) (human) (UniProt P14416). In words: co-IP; anti-GFP immunoprecipitation from transfected HEK 293 cell lysates in ELB lysis buffer, 3 h at 4 C, protein-A agarose; Western blot.

As to “Cdk5/p35 complex (endogenous, rat brain) (from UniProt Q03114 1-292; P61810 1-307)”, the binding result in test [1] is “binds”. Turning to “HA-Cdk5/p35 complex (human, expressed in HEK 293 cells) (from UniProt Q00535 1-292; Q15078 1-307)”, the binding entry in test [2] is “binds”.
